These are yes or no findings as the source states them, for the method shown. For part of these data: In cells and extracts the contact can be indirect. Some entries that bind do so weakly or less than the wild type.
Legend:
[1] = biological target: AtWRI1^1-306 (DNA binding domain fusion, yeast two-hybrid bait) (Arabidopsis) (UniProt Q6X5Y6); assay: two-hybrid; BD-AtWRI1 variants (pDEST32, yeast AH109) as bait, AD-TCP20 (pDEST22, yeast Y187) as prey; mated, plated on -Leu/-Trp, streaked onto stringent selective -Leu/-Trp/-His medium; library screen and direct test
[2] = biological target: AtWRI1^58-240 (DNA binding domain fusion, yeast two-hybrid bait) (Arabidopsis) (UniProt Q6X5Y6); assay: as above
[3] = biological target: nYFP-AtWRI1 (Arabidopsis) (UniProt Q6X5Y6); assay: split reporter; BiFC: nYFP and cYFP fusions co-produced in N. benthamiana leaves by agroinfiltration (with P19); YFP fluorescence by confocal microscopy 2-3 days after infiltration

Chains of the proteins cited; added tags and fusions are not shown. Lines headed by an entry give the natural chain unless they say otherwise; changes in a name come on top. Residues count along the entry.
UniProt Q6X5Y6: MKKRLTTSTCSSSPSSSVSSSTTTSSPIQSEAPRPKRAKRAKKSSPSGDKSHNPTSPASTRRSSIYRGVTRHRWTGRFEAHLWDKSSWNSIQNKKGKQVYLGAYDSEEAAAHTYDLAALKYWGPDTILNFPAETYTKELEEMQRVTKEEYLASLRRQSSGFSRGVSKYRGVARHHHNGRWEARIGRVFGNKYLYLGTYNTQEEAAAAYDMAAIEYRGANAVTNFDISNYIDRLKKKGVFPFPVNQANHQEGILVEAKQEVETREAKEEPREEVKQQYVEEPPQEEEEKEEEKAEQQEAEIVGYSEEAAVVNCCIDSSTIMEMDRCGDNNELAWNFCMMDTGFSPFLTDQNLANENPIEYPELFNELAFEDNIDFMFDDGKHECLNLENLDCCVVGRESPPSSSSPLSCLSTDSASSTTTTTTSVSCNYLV
AtWRI1^1-306 (DNA binding domain fusion, yeast two-hybrid bait): residues 1-306 of Q6X5Y6
AtWRI1^58-240 (DNA binding domain fusion, yeast two-hybrid bait): residues 58-240 of Q6X5Y6
UniProt Q9LSD5: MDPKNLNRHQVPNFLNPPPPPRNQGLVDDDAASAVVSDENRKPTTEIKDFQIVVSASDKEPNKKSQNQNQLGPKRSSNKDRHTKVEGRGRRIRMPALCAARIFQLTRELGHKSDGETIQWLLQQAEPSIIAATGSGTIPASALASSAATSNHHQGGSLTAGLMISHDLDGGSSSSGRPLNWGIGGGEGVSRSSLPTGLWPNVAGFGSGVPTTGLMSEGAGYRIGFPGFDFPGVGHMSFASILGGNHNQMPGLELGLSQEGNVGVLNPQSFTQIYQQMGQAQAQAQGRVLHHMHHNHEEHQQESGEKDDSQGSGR

| Substance | binding [1] | binding [2] | binding [3] |
| --- | --- | --- | --- |
| activation domain (AD)-TCP20 fusion (yeast two-hybrid prey) (from UniProt Q9LSD5 1-314) | binds | binds | – |
| cYFP-TCP20 (from UniProt Q9LSD5 1-314) | – | – | binds |

Source: article PMC8840716
